# Reference: paper PMC3612035
# Sequences of proteins named here, by UniProt entry; tags and fusion partners are left off.
# UniProt Q9NZJ0: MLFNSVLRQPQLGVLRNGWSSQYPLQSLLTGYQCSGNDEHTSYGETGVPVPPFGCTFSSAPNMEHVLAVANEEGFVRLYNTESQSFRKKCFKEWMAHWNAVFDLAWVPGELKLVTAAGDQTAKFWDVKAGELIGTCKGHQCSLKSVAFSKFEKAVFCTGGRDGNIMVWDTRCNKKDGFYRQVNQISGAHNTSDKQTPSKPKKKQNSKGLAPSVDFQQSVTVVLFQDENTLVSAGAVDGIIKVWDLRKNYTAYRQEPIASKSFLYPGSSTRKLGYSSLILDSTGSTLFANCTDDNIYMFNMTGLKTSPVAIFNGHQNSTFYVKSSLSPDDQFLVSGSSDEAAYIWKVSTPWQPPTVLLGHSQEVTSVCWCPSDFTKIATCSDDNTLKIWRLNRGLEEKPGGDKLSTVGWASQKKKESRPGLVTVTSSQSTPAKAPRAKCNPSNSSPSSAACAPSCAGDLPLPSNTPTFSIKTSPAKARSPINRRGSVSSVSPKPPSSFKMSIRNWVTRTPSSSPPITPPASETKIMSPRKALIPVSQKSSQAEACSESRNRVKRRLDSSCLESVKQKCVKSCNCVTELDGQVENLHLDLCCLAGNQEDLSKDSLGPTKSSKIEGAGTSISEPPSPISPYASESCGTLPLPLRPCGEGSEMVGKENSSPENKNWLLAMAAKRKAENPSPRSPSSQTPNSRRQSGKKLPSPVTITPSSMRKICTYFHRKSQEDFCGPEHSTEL
# UniProt Q13619: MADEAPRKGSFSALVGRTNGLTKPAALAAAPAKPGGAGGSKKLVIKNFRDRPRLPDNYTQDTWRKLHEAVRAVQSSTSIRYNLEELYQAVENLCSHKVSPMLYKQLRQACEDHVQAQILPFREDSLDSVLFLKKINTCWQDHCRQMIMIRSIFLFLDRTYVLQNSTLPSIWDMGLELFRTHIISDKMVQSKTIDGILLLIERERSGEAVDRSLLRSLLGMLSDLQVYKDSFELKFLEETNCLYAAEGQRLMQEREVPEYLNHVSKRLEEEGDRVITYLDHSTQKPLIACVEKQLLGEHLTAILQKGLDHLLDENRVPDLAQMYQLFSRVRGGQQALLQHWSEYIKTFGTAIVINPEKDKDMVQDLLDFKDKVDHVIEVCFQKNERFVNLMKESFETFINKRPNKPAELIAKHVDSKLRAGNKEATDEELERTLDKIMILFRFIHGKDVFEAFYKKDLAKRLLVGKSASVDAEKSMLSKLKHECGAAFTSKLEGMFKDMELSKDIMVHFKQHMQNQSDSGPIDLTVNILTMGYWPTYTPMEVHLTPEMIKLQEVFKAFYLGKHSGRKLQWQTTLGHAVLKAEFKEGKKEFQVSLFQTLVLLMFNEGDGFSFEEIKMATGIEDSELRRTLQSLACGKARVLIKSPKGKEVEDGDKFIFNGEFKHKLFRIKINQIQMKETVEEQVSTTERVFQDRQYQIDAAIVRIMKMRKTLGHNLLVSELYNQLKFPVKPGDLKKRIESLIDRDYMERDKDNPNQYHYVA
# UniProt Q13620: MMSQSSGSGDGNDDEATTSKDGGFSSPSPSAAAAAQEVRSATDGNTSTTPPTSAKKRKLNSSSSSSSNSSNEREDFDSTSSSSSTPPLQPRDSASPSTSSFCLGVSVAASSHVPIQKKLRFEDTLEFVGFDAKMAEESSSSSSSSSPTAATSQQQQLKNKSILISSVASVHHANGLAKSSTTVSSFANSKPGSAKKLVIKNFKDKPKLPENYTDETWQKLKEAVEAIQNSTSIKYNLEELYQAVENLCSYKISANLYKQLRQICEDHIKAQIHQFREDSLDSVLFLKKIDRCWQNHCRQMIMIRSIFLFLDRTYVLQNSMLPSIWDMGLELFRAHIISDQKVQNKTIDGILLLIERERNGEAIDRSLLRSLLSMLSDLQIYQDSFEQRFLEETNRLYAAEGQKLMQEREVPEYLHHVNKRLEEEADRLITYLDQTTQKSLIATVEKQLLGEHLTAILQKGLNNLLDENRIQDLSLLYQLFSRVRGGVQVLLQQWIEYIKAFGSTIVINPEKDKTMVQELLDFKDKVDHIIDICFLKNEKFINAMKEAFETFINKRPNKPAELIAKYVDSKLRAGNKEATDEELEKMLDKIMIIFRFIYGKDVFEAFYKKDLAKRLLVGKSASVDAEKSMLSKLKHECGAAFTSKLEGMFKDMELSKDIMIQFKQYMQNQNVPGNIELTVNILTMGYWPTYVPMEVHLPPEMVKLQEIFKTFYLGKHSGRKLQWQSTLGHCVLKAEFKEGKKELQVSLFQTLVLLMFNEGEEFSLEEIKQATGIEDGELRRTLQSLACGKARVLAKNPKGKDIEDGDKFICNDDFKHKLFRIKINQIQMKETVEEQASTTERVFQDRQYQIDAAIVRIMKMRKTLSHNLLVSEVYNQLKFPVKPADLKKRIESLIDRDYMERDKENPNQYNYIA
# UniProt Q92905: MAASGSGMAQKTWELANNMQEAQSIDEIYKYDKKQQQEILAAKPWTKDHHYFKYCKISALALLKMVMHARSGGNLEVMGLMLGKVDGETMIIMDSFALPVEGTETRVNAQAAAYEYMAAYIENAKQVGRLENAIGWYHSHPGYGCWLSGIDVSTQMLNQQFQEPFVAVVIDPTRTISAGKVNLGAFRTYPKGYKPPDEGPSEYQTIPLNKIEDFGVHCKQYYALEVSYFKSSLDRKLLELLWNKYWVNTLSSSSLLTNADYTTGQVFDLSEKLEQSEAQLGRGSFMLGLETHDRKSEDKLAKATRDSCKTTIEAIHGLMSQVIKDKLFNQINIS
# UniProt Q149N8: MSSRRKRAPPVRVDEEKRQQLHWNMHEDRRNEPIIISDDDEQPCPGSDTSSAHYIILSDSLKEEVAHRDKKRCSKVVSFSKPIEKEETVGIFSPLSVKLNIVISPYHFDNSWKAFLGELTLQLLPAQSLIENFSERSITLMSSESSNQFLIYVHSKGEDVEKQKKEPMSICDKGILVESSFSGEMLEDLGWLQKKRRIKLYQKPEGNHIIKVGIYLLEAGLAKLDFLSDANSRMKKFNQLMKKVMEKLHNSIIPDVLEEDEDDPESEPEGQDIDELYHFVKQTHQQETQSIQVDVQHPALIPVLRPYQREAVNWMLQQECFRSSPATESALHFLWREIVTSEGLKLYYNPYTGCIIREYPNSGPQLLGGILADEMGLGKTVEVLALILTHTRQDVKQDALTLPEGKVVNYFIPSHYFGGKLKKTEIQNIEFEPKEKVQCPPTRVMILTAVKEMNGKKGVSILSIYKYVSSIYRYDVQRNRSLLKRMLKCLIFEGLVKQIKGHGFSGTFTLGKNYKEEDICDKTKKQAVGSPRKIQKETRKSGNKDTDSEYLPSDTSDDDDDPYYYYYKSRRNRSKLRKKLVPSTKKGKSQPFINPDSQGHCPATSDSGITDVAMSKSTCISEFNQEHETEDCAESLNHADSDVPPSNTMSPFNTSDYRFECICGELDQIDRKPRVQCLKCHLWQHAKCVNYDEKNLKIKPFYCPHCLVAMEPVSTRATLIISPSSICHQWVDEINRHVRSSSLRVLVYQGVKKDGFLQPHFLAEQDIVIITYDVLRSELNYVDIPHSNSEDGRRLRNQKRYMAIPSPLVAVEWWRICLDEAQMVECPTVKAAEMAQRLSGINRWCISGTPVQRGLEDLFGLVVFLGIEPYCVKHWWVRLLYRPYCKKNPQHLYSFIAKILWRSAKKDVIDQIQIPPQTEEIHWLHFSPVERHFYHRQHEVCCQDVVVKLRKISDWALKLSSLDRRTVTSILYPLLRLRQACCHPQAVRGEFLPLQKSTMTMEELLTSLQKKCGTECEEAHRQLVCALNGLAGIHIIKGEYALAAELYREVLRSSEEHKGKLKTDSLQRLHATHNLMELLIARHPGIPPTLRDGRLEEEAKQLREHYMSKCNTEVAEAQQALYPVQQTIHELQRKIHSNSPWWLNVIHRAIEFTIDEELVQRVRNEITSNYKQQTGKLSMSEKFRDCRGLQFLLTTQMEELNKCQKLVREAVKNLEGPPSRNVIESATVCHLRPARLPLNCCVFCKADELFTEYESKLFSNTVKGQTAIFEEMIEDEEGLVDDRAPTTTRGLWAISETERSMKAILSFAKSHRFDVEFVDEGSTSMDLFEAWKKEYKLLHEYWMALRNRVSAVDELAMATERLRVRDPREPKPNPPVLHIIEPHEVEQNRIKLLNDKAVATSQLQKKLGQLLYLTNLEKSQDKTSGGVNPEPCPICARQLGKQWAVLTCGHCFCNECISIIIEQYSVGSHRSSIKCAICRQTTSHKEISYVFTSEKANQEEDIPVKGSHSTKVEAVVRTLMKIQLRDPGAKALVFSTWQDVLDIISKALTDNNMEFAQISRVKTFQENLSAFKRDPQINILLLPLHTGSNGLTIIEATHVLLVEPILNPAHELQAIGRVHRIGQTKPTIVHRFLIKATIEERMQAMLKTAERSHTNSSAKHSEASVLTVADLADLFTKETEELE
# UniProt Q9NS91: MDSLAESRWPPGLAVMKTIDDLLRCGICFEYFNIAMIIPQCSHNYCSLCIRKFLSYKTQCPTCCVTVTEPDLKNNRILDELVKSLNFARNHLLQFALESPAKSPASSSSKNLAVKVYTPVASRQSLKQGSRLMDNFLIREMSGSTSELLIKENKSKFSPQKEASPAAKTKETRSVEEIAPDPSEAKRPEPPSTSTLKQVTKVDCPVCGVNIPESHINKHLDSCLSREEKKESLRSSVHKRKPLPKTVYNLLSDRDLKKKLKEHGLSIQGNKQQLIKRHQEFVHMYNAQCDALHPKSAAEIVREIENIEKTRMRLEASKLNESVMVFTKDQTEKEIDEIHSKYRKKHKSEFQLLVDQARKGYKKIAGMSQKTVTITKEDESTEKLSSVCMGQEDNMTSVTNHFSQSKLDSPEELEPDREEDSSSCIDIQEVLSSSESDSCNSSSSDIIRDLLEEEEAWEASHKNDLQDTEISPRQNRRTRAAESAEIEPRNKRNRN
# Results are given in words; binding and its absence hold for the method and conditions named. Binding seen in cells or lysates may run through a third protein. Some results given as binding are weak or reduced against the parent protein; the word gives no strength.
# What was measured:
# [1] = molecular target: CDT2, endogenous (human (endogenous in HeLa)) (UniProt Q9NZJ0); test: co-IP; HeLa cells synchronized by double thymidine block, harvested 2.5 hrs after release (mid S-phase), where indicated transfected with myc-CUL4B; lysis in 420 mM NaCl, 50 mM Tris-HCl pH 7.5, 1% NP-40, diluted to 150 mM NaCl; 0.5-0.8 mg extract per IP; control serum; interactions resistant to ethidium bromide; immunoblot
# [2] = molecular target: Cullin-4A (CUL4A), endogenous (human (endogenous in HeLa)) (UniProt Q13619); test: as above
# myc-tagged CUL4B = myc-tagged CUL4B (UniProt Q13620); test: as above
# [3] = molecular target: T1, HLTF, endogenous (human (endogenous in HeLa)) (UniProt Q14527); test: co-IP; HeLa cells synchronized in mid S-phase, protein-protein cross-linked before harvest (protocol of ref. 39, for chromatin); total extract immunoprecipitated with serum as control or the indicated antibodies; immunoblot
# T1 sequence: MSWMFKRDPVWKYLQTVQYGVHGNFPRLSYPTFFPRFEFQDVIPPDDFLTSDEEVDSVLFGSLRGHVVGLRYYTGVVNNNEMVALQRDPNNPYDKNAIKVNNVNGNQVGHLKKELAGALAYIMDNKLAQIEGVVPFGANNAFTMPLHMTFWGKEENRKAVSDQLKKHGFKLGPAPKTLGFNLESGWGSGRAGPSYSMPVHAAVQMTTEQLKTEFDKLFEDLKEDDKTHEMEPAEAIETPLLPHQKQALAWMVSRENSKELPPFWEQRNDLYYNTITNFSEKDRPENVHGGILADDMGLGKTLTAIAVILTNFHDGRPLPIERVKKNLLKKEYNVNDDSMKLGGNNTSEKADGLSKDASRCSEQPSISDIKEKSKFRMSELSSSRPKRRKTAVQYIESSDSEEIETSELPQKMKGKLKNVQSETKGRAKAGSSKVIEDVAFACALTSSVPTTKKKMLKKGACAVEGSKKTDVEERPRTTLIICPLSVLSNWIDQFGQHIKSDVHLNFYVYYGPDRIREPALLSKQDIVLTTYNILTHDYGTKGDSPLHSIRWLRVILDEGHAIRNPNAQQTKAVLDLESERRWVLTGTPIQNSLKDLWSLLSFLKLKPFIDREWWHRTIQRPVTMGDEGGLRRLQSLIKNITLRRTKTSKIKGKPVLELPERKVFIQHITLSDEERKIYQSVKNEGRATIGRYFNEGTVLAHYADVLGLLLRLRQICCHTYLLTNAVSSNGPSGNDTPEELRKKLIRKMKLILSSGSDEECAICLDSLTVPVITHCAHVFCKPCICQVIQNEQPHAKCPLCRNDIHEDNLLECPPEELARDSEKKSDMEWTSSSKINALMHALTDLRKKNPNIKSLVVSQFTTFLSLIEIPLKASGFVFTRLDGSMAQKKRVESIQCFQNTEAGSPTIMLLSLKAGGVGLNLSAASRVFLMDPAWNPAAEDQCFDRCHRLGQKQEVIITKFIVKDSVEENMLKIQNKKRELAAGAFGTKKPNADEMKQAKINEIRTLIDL
# [4] = molecular target: CDT2, endogenous (human (endogenous in HeLa)) (UniProt Q9NZJ0); test: as above
substance,measurement,setting,value
"CSN5 (COP9 signalosome subunit 5), endogenous (from UniProt Q92905 1-334)",binding,[1],binds
"Cullin-4B (CUL4B), endogenous (from UniProt Q13620 1-913)",binding,[1],binds
same,binding,[2],binds
same,binding,myc-tagged CUL4B,binds
"CDT2, endogenous (from UniProt Q9NZJ0 1-730)",binding,[3],binds
"Cullin-4A (CUL4A), endogenous (from UniProt Q13619 1-759)",binding,[1],binds
same,binding,myc-tagged CUL4B,binds
"SHPRH, endogenous (from UniProt Q149N8 1-1683)",binding,[4],binds
"RAD18, endogenous (from UniProt Q9NS91 1-495)",binding,[4],binds
same,binding,[3],binds
myc-tagged CUL4B (from UniProt Q13620 1-913),binding,[1],binds
